Experimental data: paper PMC4242536, “Cell Surface Protein Disulfide Isomerase Regulates Natriuretic Peptide Generation of Cyclic Guanosine Monophosphate” (PLoS ONE, 2014)
Results are given in words; binding and its absence hold for the method and conditions named. Binding can be weak; no strength is given.

Target: Protein disulfide isomerase (PDI), purified full-length protein
Test: SPR; Biacore T200, 25°C; PDI amine-coupled to a CM5 chip; ANP, BNP or CNP injected at 40 ul/min for 30 s, 150 s dissociation; running buffer 150 mM NaCl, 0.005% Polysorbate 20, 10 mM HEPES, pH 7.4; peptides 0-1600 nM; both purified

- binding: binds weakly
Binder: GLSKGCFGLKLDRIGSMSGLGC (peptide, UniProt P23582 105-126) [C-type natriuretic peptide (CNP)]
